According to the supplement of paper PMC10331698:
± gives the standard deviation of the averaged measurements. Most values lie at the level of the controls, where differences are scatter.

Assays:
Assay in all cases: level (log10 ratio to DMSO vehicle control); higher = higher biomarker level / cell amount than vehicle control
[1] = compound: C=CC(=O)OCCC(F)(F)C(F)(F)C(F)(F)C(F)(F)C(F)(F)C(F)(F)C(F)(F)C(F)(F)F [8:2 Fluorotelomer acrylate]; details: 2200 nM; in DMSO
Procedure: (§1)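 BioMAP Diversity Plus panel of 12 human primary cell co-culture systems (3C, 4H, LPS, SAg, BT, BF4T, BE3C, CASM3C, HDF3CGF, KF3CT, MyoF, Mphg). Compounds were added 1 h before stimulation and left for 24 h (MyoF 48 h; BT 72 h for soluble read-outs or 6 d for IgG). Biomarkers were read by ELISA, cytotoxicity by SRB, PBMC viability and proliferation by Alamar Blue. Each well value was divided by the mean of 8 DMSO control wells on the same plate and log10 transformed; duplicate blinded samples were tested at 4 concentrations.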

Perfluoro-1-iodohexane = compound: FC(F)(F)C(F)(F)C(F)(F)C(F)(F)C(F)(F)C(F)(F)I [Perfluoro-1-iodohexane]; details: in DMSO
Procedure: as §1

[2] = compound: C=CC(=O)OCCC(F)(F)C(F)(F)C(F)(F)C(F)(F)F [2-(Perfluorobutyl)ethyl acrylate]; details: 2200 nM; in DMSO
Procedure: as §1

[3] = compound: O=S(=O)(O)C(F)(F)C(F)(F)C(F)(F)C(F)(F)C(F)(F)C(F)(F)F [Perfluorohexanesulfonic acid]; details: 2200 nM; in DMSO
Procedure: as §1

[4] = compound: FC(F)(F)C(F)(C(F)(F)F)C(F)(F)C(F)(F)CC1CO1 [3-(Perfluoro-3-methylbutyl)-1,2-propenoxide]; details: in DMSO
Procedure: as §1

[5] = compound: FC(F)(I)C(F)(F)C(F)(F)C(F)(F)C(F)(F)C(F)(F)I [1,6-Diiodoperfluorohexane]; details: 2200 nM; in DMSO
Procedure: as §1

[6] = compound: C=CC(=O)OCC(F)(F)C(F)(F)C(F)(F)COC(=O)C=C [1H,1H,5H,5H-Perfluoro-1,5-pentanediol diacrylate]; details: 2200 nM; in DMSO
Procedure: as §1

[7] = compound: OCCCC(F)(F)C(F)(F)C(F)(F)C(F)(F)C(F)(F)C(F)(F)C(F)(F)F [7:3 Fluorotelomer alcohol]; details: 2200 nM; in DMSO
Procedure: as §1

Hexafluoroamylene glycol = compound: OCC(F)(F)C(F)(F)C(F)(F)CO [Hexafluoroamylene glycol]; details: 2200 nM; in DMSO
Procedure: as §1

[8] = compound: O=C(Cl)C(F)(F)C(F)(F)C(F)(F)C(=O)Cl [Hexafluoroglutaryl chloride]; details: 2200 nM; in DMSO
Procedure: as §1

[9] = compound: O=C(O)C=C(C(F)(F)F)C(F)(F)F [3,3-Bis(trifluoromethyl)-2-propenoic acid]; details: in DMSO
Procedure: as §1

[10] = compound: O=S(=O)(O)CCC(F)(F)C(F)(F)C(F)(F)C(F)(F)F [4:2 Fluorotelomer sulfonic acid]; details: 2200 nM; in DMSO
Procedure: as §1

[11] = compound: O=C(O)C(F)(F)C(F)(F)C(F)(F)C(F)(F)C(F)(F)C(F)(F)C(F)(F)C(F)(F)C(F)(F)C(F)(F)C(F)(F)C(F)(F)C(F)(F)F [Perfluorotetradecanoic acid]; details: in DMSO
Procedure: as §1

Test System | level (log10) [1] | level (log10) (Perfluoro-1-iodohexane; 2200 nM) | level (log10) (Perfluoro-1-iodohexane; 6700 nM) | level (log10) (Perfluoro-1-iodohexane; 20000 nM) | level (log10) (Perfluoro-1-iodohexane; 60000 nM) | level (log10) [2] | level (log10) [3] | level (log10) ([4]; 740 nM) | level (log10) ([4]; 2200 nM) | level (log10) [5] | level (log10) [6] | level (log10) [7] | level (log10) (Hexafluoroamylene glycol) | level (log10) [8] | level (log10) ([9]; 2200 nM) | level (log10) ([9]; 6700 nM) | level (log10) ([9]; 20000 nM) | level (log10) ([9]; 60000 nM) | level (log10) [10] | level (log10) ([11]; 740 nM) | level (log10) ([11]; 2200 nM)
BE3C:HLA-DR | 0.017 ± 0.023 | 0 ± 0.0099 | -0.003 ± 0.0028 | 0.003 ± 0.0057 | -0.009 ± 0.0028 | -0.004 ± 0.024 | -0.0005 ± 0.033 | -0.01 ± 0.023 | -0.007 ± 0.0071 | 0.024 ± 0.018 | 0.006 ± 0.018 | -0.0035 ± 0.032 | -0.027 ± 0.021 | -0.001 ± 0.0028 | -0.004 ± 0.031 | -0.0175 ± 0.0064 | -0.0245 ± 0.011 | -0.0355 ± 0.016 | -0.017 ± 0.027 | 0.014 ± 0.0099 | -0.0095 ± 0.021
LPS:CCL2/MCP-1 | 0.007 ± 0.025 | -0.013 ± 0.03 | -0.0025 ± 0.005 | -0.009 ± 0.0014 | 0.0015 ± 0.032 | 0.0015 ± 0.025 | -0.002 ± 0.037 | 0.015 ± 0.037 | -0.009 ± 0.0085 | 0.008 ± 0.0057 | -0.0055 ± 0.035 | -0.0105 ± 0.019 | 0.013 ± 0.018 | 0.0135 ± 0.0092 | 0.002 ± 0.03 | 0.0015 ± 0.00071 | -0.0145 ± 0.0035 | -0.02 ± 0.03 | 0.011 ± 0.011 | 0.039 ± 0.023 | 0.002 ± 0.0057
BF4T:MMP-1 | 0.0165 ± 0.015 | 0.008 ± 0.0014 | 0.0045 ± 0.005 | 0.0035 ± 0.0035 | 0.009 ± 0.011 | 0.0055 ± 0.063 | 0.0135 ± 0.0064 | 0.0045 ± 0.042 | -0.0115 ± 0.052 | 0.0085 ± 0.015 | 0.0185 ± 0.0035 | -0.0025 ± 0.0078 | -0.0025 ± 0.013 | -0.005 ± 0.0028 | 0.014 ± 0.018 | -0.006 ± 0.018 | 0 ± 0.0042 | 0.0125 ± 0.021 | 0.001 ± 0.021 | 0.006 ± 0.0071 | -0.003 ± 0.0042
CASM3C:Proliferation | 0.0035 ± 0.0092 | -0.0115 ± 0.0078 | 0.023 ± 0.0071 | -0.02 ± 0.013 | -0.021 ± 0.067 | 0.009 ± 0.059 | 0.006 ± 0.018 | -0.0215 ± 0.05 | 0.022 ± 0.0028 | -0.0005 ± 0.018 | -0.127 ± 0.065 | 0.016 ± 0.025 | 0.0025 ± 0.042 | -0.0085 ± 0.013 | -0.002 ± 0.027 | -0.0475 ± 0.0035 | -0.0555 ± 0.015 | -0.177 ± 0.06 | 0.018 | 0.017 ± 0.014 | -0.014 ± 0.054
BF4T:CD54/ICAM-1 | 0.0015 ± 0.023 | 0.0055 ± 0.011 | -0.004 ± 0.0057 | 0.0045 ± 0.013 | 0 ± 0.0057 | -0.01 ± 0.033 | -0.0025 ± 0.0035 | -0.0035 ± 0.016 | -0.021 ± 0.023 | -0.0155 ± 0.012 | -0.047 ± 0.02 | -0.0035 ± 0.012 | 0.015 ± 0.028 | 0.0215 ± 0.019 | -0.0085 ± 0.022 | -0.0195 ± 0.005 | -0.0205 ± 0.005 | -0.0075 ± 0.013 | 0.0195 ± 0.03 | 0.0115 ± 0.0035 | -0.0035 ± 0.005
SAg:Proliferation | -0.0185 ± 0.00071 | -0.0275 ± 0.064 | -0.031 ± 0.044 | -0.055 ± 0.02 | -0.0395 ± 0.04 | 0.0035 ± 0.12 | 0.0125 ± 0.012 | 0.0535 ± 0.059 | -0.001 ± 0.076 | -0.005 ± 0.0099 | -0.234 ± 0.075 | 0.041 ± 0.0057 | -0.0395 ± 0.066 | 0.0315 ± 0.0064 | 0.046 ± 0.072 | 0.004 ± 0.0085 | -0.0715 ± 0.022 | -0.462 ± 0.032 | -0.0305 ± 0.087 | 0.01 ± 0.072 | -0.012 ± 0.02
